Experimental findings from publication doi:10.1101/2022.07.22.501112 are described below.

The chains behind the UniProt entries cited, without tags or fusion partners. Residues count along the entry.
UniProt Q07021, 74-282: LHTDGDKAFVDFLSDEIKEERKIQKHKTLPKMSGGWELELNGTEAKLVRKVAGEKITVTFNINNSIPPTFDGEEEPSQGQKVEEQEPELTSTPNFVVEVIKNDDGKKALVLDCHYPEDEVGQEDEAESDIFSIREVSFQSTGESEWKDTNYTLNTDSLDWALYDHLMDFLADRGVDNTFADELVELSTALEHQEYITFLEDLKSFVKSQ

Results are given in words; binding and its absence hold for the method and conditions named. For part of these data: Binding seen in cells or lysates may run through a third protein. Some results given as binding are weak or reduced against the parent protein; the word gives no strength. For part of these data: Sequences can lack the tags named with a protein.

Assay [1] addresses FLAG-tagged MIER1(aa:171-350), ELM2-SANT domain (human) (UniProt Q8N108). Briefly: SEC-MALS. (In gel filtration, larger molecules generally elute earlier.)
Assay [2] addresses Full length FLAG tagged MIER1(aa:1-512) (human) (UniProt Q8N108). Briefly: co-IP + SEC.
The target of assay [3] is T1, FLAG-tagged MIER1(aa:171-512) (human) (UniProt Q8N108).
T1 sequence: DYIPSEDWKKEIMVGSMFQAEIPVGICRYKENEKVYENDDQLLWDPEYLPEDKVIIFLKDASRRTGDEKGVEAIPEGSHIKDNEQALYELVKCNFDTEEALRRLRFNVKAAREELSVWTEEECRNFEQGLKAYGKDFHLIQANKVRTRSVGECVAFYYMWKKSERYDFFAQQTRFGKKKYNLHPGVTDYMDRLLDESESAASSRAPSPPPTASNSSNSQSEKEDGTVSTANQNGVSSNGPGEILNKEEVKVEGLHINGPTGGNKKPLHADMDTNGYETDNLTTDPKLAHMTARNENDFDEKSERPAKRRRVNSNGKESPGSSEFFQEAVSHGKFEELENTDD
Briefly: co-IP + SEC.

Turning to “FLAG-tagged MIER1(aa:171-350), ELM2-SANT domain (from UniProt Q8N108 171-350) (domain or fragment)”, the binding entry in assay [1] is recorded as “no binding”.

Consider “endogenous C1QBP, mature form (from UniProt Q07021 74-282)”, for which the binding result in assay [2] and in assay [3] was “binds” in each case.
